According to US20250136687A1:
Substitutions are numbered along the chain they refer to. Results are given in words; binding and its absence hold for the method and conditions named. Binding calls can cover weak binding; strength is not graded here.

B1: 7-35.6-H2-L3 humanized antibody (antibody, human IgG1, lambda, V domains shown)
VH: EVQLVESGGGLVQPGGSLKLSCAASGFTFNTYAMNWVRQASGKGLEWVGRIRSKINNYATYYGDSVKDRFTISRDDSKNTFYLQMNSLKTEDTAVYYCVIHENYGSISWFAYWGQGTLVTVSS
VL: ETVVTQEPSLTVSPGGTVTLTCRSSTGAVTTSNYANWVQQKPGQAFTGLIGGTNNRAPWTPARFSGSLLGGKAALTLSGVQPEDEAEYYCALWYSNHWVFGGGTKLTVLG
B2: 8-18.1-H1-L2 humanized antibody (antibody, human IgG1, kappa, V domains shown)
VH: EVQLVQSGAEVKKPGASVKVSCKASGYTFTMNTMHWVRQAPGQRLEWMGYINPYSGYTKYNQIFKDRVTITADKSASTAYMELSSLRSEDTAVYYCLRGGEGVWGQGTTVTVSS
VL: DVVMTQSPLSLPVTLGQPASISCKSSQSLLDSDGKTYLNWLQQRPGQSPRRLIYLVSELGSGVPDRFSGSGSGTDFTLKISRVEAEDVGVYYCWQGTHFPRTFGGGTKVEIKR
B3: 5-7.13-H1a-L2 humanized antibody (antibody, human IgG1, kappa, V domains shown)
VH: EVQLVQSGAEVKKPGASVKVSCKASGYTFTSYWVHWVRQAPGQRLEWMGNINPSDGVTNYNEKFKSRVTITVDKSASTAYMELSSLRSEDTAVYYCTRDAYGQYYFDNWGQGTTVTVSS
VL: DIVMTQTPLSLPVTPGEPASISCKSSQSLLNSRTRKNYLAWYLQKPGQSPQLLIYWASVRDSGVPDRFSGSGSGTDFTLKISRVEAEDVGVYYCIQSYYLRTFGGGTKVEIKR
B4: 1-22.6-1-H2a-L2a humanized antibody (antibody, human IgG1, kappa, V domains shown)
VH: EVQLVQSGSELKKPGASVKVSCKTSGYTFTSYGMSWVRQAPGQGLEWMGWINTYSGVPTYAQDFKGRFVFSLDTSVSTAYLQISSLKAEDTAVYYCARLKNNPFVWGQGTTVTVSS
VL: DIVMTQSPDSLAVSLGERATINCRSSQLILHSSGNTYLEWYQQKPGQSPKLLIYKVSNRFSGVPDRFSGSGSGTDFTLTISSLQAEDVAVYYCFQGSHFPWTFGGGTKVEIKR
B5: 5-40.21-H3-L1 humanized antibody (antibody, human IgG1, kappa, V domains shown)
VH: EVQLVQSGAEVKKPGASVKVSCKASGYTFTSYWMHWVRQAPGQGLEWMGNTYPGSGSTNYDEKFKSRVTITVDSSASTAYMELSSLRSEDTAVYYCTRDRYGVYYFDYWGQGTTVTVSS
VL: DIVMTQSPDSLAVSLGERATINCKSSQSLLNSRTRKNYLAWYQQKPGQSPKLLIYWASTRESGVPDRFSGSGSGTDFTLTISSLQAEDVAVYYCTQSYNLRTFGGGTKVEIKR
B6: 6-44.5-H1-L2 humanized antibody (antibody, human IgG1, kappa, V domains shown)
VH: EVQLVQSGAEVKKPGSSVKVSCKASGHTFSSHIMHWVRQAPGQGLEWMGYINPNNDRTEYSEKFKGRVTITADKSTSTAYMELSSLRSEDTAVYYCAGEAYYSNSLYAMDYWGQGTTVTVSS
VL: B5 VL with L30F, T95K, N99Y
B7: 6-35.22-H1-L1 humanized antibody (antibody, human IgG1, kappa, V domains shown)
VH: EVQLVESGGGVVQPGRSLRLSCAASGFTFTDYYMSWVRQAPGKGLEWVAMSRNKAKGHTIEYSSSVKGRFTISRDNSKNTLYLQMNSLRAEDTAVYYCARDTYESYDGYFDVWGQGTTVTVSS
VL: B5 VL with L30F, T34S, S49T, T59I, T95K, N99Y, R101Y, G105Q, V109L

biological target: human CD3ε/δ-His (human); experiment: ELISA, coated antigen

binding, binds:
B1
B2
B3
B4
B5
B6
B7

biological target: monkey CD3ε/δ-His (monkey); experiment: ELISA, coated antigen

binding, binds:
B1
B2
B3
B4
B5
B6
